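Viability of cultured SK-N-SH cells after two days of treatment, gauged by the ATP-based glow signal, where a falling signal indicates cell killing. Compounds were titrated in 8- or 11-point series, from sub-nanomolar levels up to roughly 46–57 µM. The value is the fitted potency (AC50, nM) of the cytotoxic curve; a lower number means stronger potency. Calls come from the fitted curve class and an activity score; inconclusive marks weak, poorly fitted, partial or top-dose-only effects, scored 1 to 39.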

Values are in nM. Every entry below has the call inconclusive. These entries are mostly ones the record files as inconclusive; other results of the assay are not listed here. A potency from a partial, single-point or poor curve is only a rough figure. Activity scores are not listed here. An entry listed twice with the same setting is a separate test.

CN1CCCCC1CCN1c2ccccc2Sc2ccc(S(C)=O)cc21 (configuration not stated) read Potency 10881 nM (cytotoxic, partial curve).
CCOC(=O)C1=C(C)NC(C)=C(C(=O)OC)C1c1cccc(Cl)c1Cl (configuration not stated) read Potency 38610 nM (cytotoxic, single point).
CC(=O)[C@H]1CC[C@H]2[C@@H]3CC=C4C[C@@H](O)CC[C@]4(C)[C@H]3CC[C@]12C read Potency 3067 nM (cytotoxic, partial curve, poor fit).
CCn1cc(C(=O)O)c(=O)c2cc(F)c(N3CCNC(C)C3)c(F)c21 (configuration not stated) read Potency 43321 nM (cytotoxic, partial curve, poor fit).
COC(=O)Nc1nc2ccc(C(=O)C3CC3)cc2[nH]1 read Potency 306.7 nM (cytotoxic, full curve, poor fit).
CC(=O)[C@H]1CC[C@H]2[C@@H]3CC=C4C[C@@H](O)CC[C@]4(C)[C@H]3CC[C@]12C read Potency 38273 nM (cytotoxic, single point).
CC(=O)CC(c1ccccc1)c1c(O)c2ccccc2oc1=O (configuration not stated) read Potency 42943 nM (cytotoxic, single point).
NC(=O)COCCN1CCN(C(c2ccccc2)c2ccc(Cl)cc2)CC1 (configuration not stated) read Potency 6119 nM (cytotoxic, full curve, poor fit).
COc1ccc2c(c1OC)C(=O)O[C@@H]2[C@H]1c2c(cc3c(c2OC)OCO3)CCN1C read Potency 21712 nM (cytotoxic, single point).
CCn1cc(C(=O)O)c(=O)c2cc(F)c(N3CCNC(C)C3)c(F)c21 (configuration not stated) read Potency 30401 nM (cytotoxic, single point).
COc1cc(C(=O)OC(COCCC(C)C)CN2CCOCC2)cc(OC)c1OC (configuration not stated) read Potency 9.7 nM (cytotoxic, full curve, poor fit).
CCCCS(=N)(=O)CCC(N)C(=O)O (configuration not stated) read Potency 30401 nM (cytotoxic, single point).
O=C(O)c1ccccc1C(=O)Nc1ccc(-c2ccccc2)cc1 read Potency 19182 nM (cytotoxic, partial curve).
O=C(O)Cc1cn(-c2ccccc2)nc1-c1ccc(Cl)cc1 read Potency 96984 nM (cytotoxic, single point).
O=C(Nc1ccc(F)c(C(F)(F)F)c1)Nc1nnc(-c2ccncc2)s1 read Potency 21522 nM (cytotoxic, partial curve).
NC[C@H]1O[C@H](O[C@@H]2[C@@H](O)[C@@H](O[C@H]3O[C@H](CO)[C@@H](O)[C@H](N)[C@@H]3O)[C@H](N)C[C@@H]2N)[C@H](O)[C@@H](O)[C@H]1O read Potency 38273 nM (cytotoxic, single point).
O=S(=O)(O)CCSSCCS(=O)(=O)O read Potency 34111 nM (cytotoxic, single point).
CC(C)C[C@@H](C(=O)N[C@H](C(=O)OC1CCCC1)c1ccccc1)[C@H](O)C(=O)NO read Potency 24148 nM (cytotoxic, partial curve).

From PubChem BioAssay record AID1347098 (NCATS, 2019).